Test results published in article PMC6429222, “The Oligomeric State of the Plasma Membrane H^+-ATPase from Kluyveromyces lactis” (Molecules, 2019).
Results are given in words; binding and its absence hold for the method and conditions named. Some binding calls cover weakened binding; strength is not graded here. Tags and fused reporters may be left off the sequences shown.

What was measured:
[1] = target: plasma membrane H^+-ATPase from Kluyveromyces lactis (Kluyveromyces lactis) (UniProt P49380); assay: light scattering; purified enzyme suspended in aqueous media; results not shown; both purified
[2] = target: plasma membrane H^+-ATPase from Kluyveromyces lactis (Kluyveromyces lactis) (UniProt P49380); assay: SEC; Superose 6 column (12 mL), 9, 6 and 3 mg of purified H^+-ATPase loaded; 0.25 mL/min; 20 mM PIPES pH 6.5, 100 mM NaCl, 1 mM MgCl2, 0.05% DDM, 10% glycerol; both purified
[3] = target: plasma membrane H^+-ATPase from Kluyveromyces lactis (Kluyveromyces lactis) (UniProt P49380); assay: native gel or EMSA; BN-PAGE of SEC Peak 1 fractions with decreased trehalose concentration in the loading buffer; result not shown; both purified

Measured: binding

B1: plasma membrane H^+-ATPase from Kluyveromyces lactis (enzyme, UniProt P49380 1-899, looked up)
chain: MSAATEPTKEKPVNNQDSDDEDEDIDQLIEDLQSHHGLDDESEDDEHVAAGSARPVPEELLQTDPSYGLTSDEVTKRRKKYGLNQMSEETENLFVKFLMFFIGPIQFVMEAAAILAAGLEDWVDFGVICGLLFLNAAVGFIQEYQAGSIVDELKKTLANSAVVIRDGNLVEVPSNEVVPGDILQLEDGVVIPADGRLVTEDCFIQIDQSAITGESLAVDKRFGDSTFSSSTVKRGEAFMIVTATGDSTFVGRAAALVNKAAAGSGHFTEVLNGIGTILLILVIVTLLLVWVASFYRTNKIVRILRYTLAITIVGVPVGLPAVVTTTMAVGAAYLAKKQAIVQKLSAIESLAGVEILCSDKTGTLTKNKLSLHEPYTVEGVDPDDLMLTACLAASRKKKGLDAIDKAFLKSLISYPRAKAALTKYKLLEFHPFDPVSKKVTAIVESPEGERIICVKGAPLFVLKTVEEEHPIPEDVRENYENKVAELASRGFRALGVARKRGEGHWEILGVMPCMDPPRDDTAQTVNEARHLGLRVKMLTGDAVGIAKETCRQLGLGTNIYNAERLGLGGGGDMPGSELADFVENADGFAEVFPQHKYNVVEILQQRGYLVAMTGDGVNDAPSLKKADTGIAVEGATDAARSAADIVFLAPGLSAIIDALKTSRQIFHRMYSYVVYRIALSLHLEIFLGLWIAILNRSLNIDLVVFIAIFADVATLAIAYDNAPYSPKPVKWNLRRLWGMSVILGIILAIGTWITLTTMFVPKGGIIQNFGSIDGVLFLQISLTENWLIFITRAAGPFWSSIPSWQLSGAVLIVDIIATMFCLFGWWSQNWNDIVTVVRVWIFSFGVFCVMGGAYYMMSESEAFDRFMNGKSRRDKPSGRSVEDFLMAMQRVSTQHEKEN
notes: plasma membrane H^+-ATPase (Pma1) of Kluyveromyces lactis, endogenous enzyme; monomer band of ~100 kDa on SDS-PAGE; also called Pma1; H^+-ATPase hexamer; source: also in isolated plasma membranes treated with DDM
binds: all assays above
